From publication PMC3125256
No constants are given. Whether binding was seen depends on the method and setting. In cells and extracts the contact can be indirect. Some results given as binding are weak or reduced against the parent protein; the word gives no strength.

Key:
GPR54-ECFP = GPR54-ECFP (UniProt Q969F8); experiment: FRET or BRET; sensitized emission PFRET in live HEK 293 cells co-expressing GPR54-ECFP (donor) and EGFR-EGFP (acceptor), 37°C, serum-starved 4 h; analysed at the plasma membrane; unstimulated or stimulated with Kp-10 (100 nM; 10 nM data not shown) or EGF (10 ng/ml) for 5 and 15 min
FLAG-tagged GPR54 = FLAG-tagged GPR54 (UniProt Q969F8); experiment: co-IP; HEK 293 cells co-transfected with FLAG-GPR54 and EGFR-EGFP, serum-starved 4 h, with or without Kp-10 (100 nM); lysis in 20 mM HEPES, 150 mM NaCl, 1.5 mM MgCl2, 1% Triton X-100; anti-FLAG antibody and protein G-Sepharose overnight at 4°C; blot with anti-GFP

binding (FLAG-tagged GPR54): binds
Substance: EGFR-EGFP (from UniProt P00533 25-1210) (receptor)
binding (GPR54-ECFP): binds
